In the supplement of paper PMC3682954:
Where a name gives a salt, the structure may show the parent alone. ± gives the standard deviation of the averaged measurements. The list shows a part of the results. Repeats are few or missing, and single values can be far off.

Test system: RAW 264.7
Experiment: cell viability (MTT) relative to vehicle control; higher = more viable cells
Details: stimulus: HMGB1 5 ug/ml, 18 h
[1] = compound concentration: 1 ug/ml

Row | Compound | cell viability (compound concentration: 3 uM) | cell viability [1]
1 | CO[C@H]1CC=C2CCN3CCC4=C(CC(=O)OC4)[C@]23C1 [Dihydro-beta-erythroidine hydrobromide] | 96.5% | –
2 | C[C@]12CCC(=O)C=C1CC[C@@H]1[C@@H]2C(=O)C[C@]2(C)C(=O)CC[C@@H]12 [Adrenosterone] | 103% | –
3 | COc1cc2c(cc1OC)-c1c(OC)c(OC)c(CO)c3c1C(C2)N(C)CC3 (stereo not given) | – | 84.5%
4 | Cc1[nH]c2ccc(O)cc2c1CCN [2-Methyl-5-hydroxytryptamine maleate] | 114% | –
5 | C=CCN1CCc2cccc3c2[C@H]1Cc1ccc(O)c(O)c1-3 [R(-)-N-Allylnorapomorphine hydrobromide] | 98.2% | –
6 | COc1ccc(C(=O)N2CCCC2=O)cc1 | 110% | –
7 | COc1ccc(C(=O)N2CCCC2=O)cc1 [Aniracetam] | 105 ± 4.8% | –
8 | O=C1/C(=C/c2ccccc2)C[C@@]2(O)[C@H]3Cc4ccc(O)c5c4[C@@]2(CCN3CC2CC2)[C@H]1O5 [BNTX maleate salt hydrate] | 79.3% | –
9 | CCCCCCCCCCCCCC(=O)O[C@@H]1[C@@H](C)[C@@]2(O)[C@@H](C=C(CO)C[C@]3(O)C(=O)C(C)=C[C@@H]23)[C@@H]2C(C)(C)[C@]12OC(C)=O [Phorbol 12-myristate 13-acetate] | 101% | –
10 | CCCCCCCCCCCCCC(=O)O[C@@H]1[C@@H](C)[C@@]2(O)[C@@H](C=C(CO)C[C@]3(O)C(=O)C(C)=C[C@@H]23)[C@@H]2C(C)(C)[C@]12OC(C)=O | 92% | –
11 | CC(C)(C)[C@]1(O)CC2OC(=O)CC23C(=O)OC2OC(=O)[C@H](O)C231 (single isomer, unassigned; (-)) [(-)-Bilobalide] | – | 91.1%
12 | CCS(=O)(=O)Nc1cccc(C(=C2CCCCC2)c2cnc[nH]2)c1 | 100% | –
13 | CC[C@@]1(O)C[C@H](O)c2c(cc3c(c2O)C(=O)c2c(O)ccc(O)c2C3=O)[C@H]1C(=O)OC | 84.3% | –
14 | O=C(O)CCCc1ccc(N(CCCl)CCCl)cc1 [Chlorambucil] | 87.3 ± 4.2% | –
15 | O=C(O)CCCc1ccc(N(CCCl)CCCl)cc1 | 103 ± 8.6% | –
16 | NCC(O)c1cc(O)c(O)cc1F (stereo not given) [6-Fluoronorepinephrine hydrochloride] | 91.9% | –
17 | CC[C@@H](C(N)=O)N1CCCC1=O [Levetiracetam] | 107 ± 6.2% | –
18 | CC[C@@H](C(N)=O)N1CCCC1=O | 85.4% | –
19 | C/C=C1/CN2CC[C@]34C(=C(C=O)[C@H]1C[C@H]23)Nc1ccccc14 | – | 104%
20 | CC(N)Cc1c[nH]c2ccc(OCc3cccs3)cc12 (stereo not given) | 99.2% | –

Random excerpt: 2 records from the list.
Row | Compound | cell viability (compound concentration: 3 uM) | cell viability [1]
4 | Cc1[nH]c2ccc(O)cc2c1CCN [2-Methyl-5-hydroxytryptamine maleate] | 114% | –
18 | CC[C@@H](C(N)=O)N1CCCC1=O | 85.4% | –

Following part

Row | Compound | cell viability (compound concentration: 3 uM) | cell viability [1]
21 | COc1ccc2[nH]c3c(c2c1)CCN=C3C [Methoxy-6-harmalan] | 102% | –
22 | NCCc1c[nH]c2c(OCc3ccccc3)cccc12 [7-Benzyloxytryptamine] | – | 102%
23 | CC(C)[C@@]1(NC(=O)[C@@H]2C[C@@H]3c4cccc5[nH]cc(c45)C[C@H]3N(C)C2)O[C@@]2(O)[C@@H]3CCCN3C(=O)[C@H](Cc3ccccc3)N2C1=O [Dihydroergocristine] | 111% | –
24 | CN1CCC(c2c[nH]c3ccc(O)cc23)CC1 | 88% | –
25 | O=C1C=C2C=C[C@@H]3C[C@@]2(O1)[C@H]1CCCCN31 [Securinine] | – | 94.3%
26 | O=C1C=C2C=C[C@@H]3C[C@@]2(O1)[C@H]1CCCCN31 | 109% | –
27 | CN1CCC(c2ccc(F)cc2)C(COc2ccc3c(c2)OCO3)C1 (stereo not given) | 97.4% | –
28 | Oc1noc2c1CCNC2 | 110% | –
29 | CCN[C@@H](C)Cc1cccc(C(F)(F)F)c1 [Dexfenfluramine hydrochloride] | 111% | –
30 | CCCC(C)C1(CC)C(=O)NC(=S)NC1=O (stereo not given) | 108% | –
31 | COc1cc([C@@H]2c3cc4c(cc3[C@H](O)[C@H]3COC(=O)[C@@H]23)OCO4)cc(OC)c1OC | 93.8% | –
32 | C[C@]12CCC(=O)C[C@@H]1CC[C@@H]1[C@@H]2CC[C@@]2(C)[C@H]1CC[C@]2(C)O [Mestanolone] | 97% | –
33 | NC(=O)CN1CC(O)CC1=O (stereo not given) [Oxiracetam] | 104% | –
34 | C[N+](C)(C)CC#CCN1CCCC1=O [Oxotremorine methiodide] | 109% | –
35 | NC(=O)c1ccc(OCC(O)CN2CC=C(c3ccc(F)cc3)CC2)cc1 (stereo not given) | 128% | –
36 | CC(C)=CC1C(C(=O)OCc2cccc(Oc3ccccc3)c2)C1(C)C (stereo not given) | 102% | –
37 | Cc1ncc2n1-c1ccc(Cl)cc1C(c1ccccc1F)=NC2 | 90.5% | –
38 | COc1ccc(CNC(=O)/C=C/c2ccc3[nH]cc(CCN(C)C)c3c2)cc1 | 101% | –
39 | C[CH2][Hg][S]c1ccccc1C(=O)[O-].[Na+] | 3.23 ± 0.81% | –
40 | C[CH2][Hg][S]c1ccccc1C(=O)[O-].[Na+] [Thimerosal] | 31.5% | –
